Reference: article PMC3499479
These are yes or no findings as the source states them, for the method shown. Binding seen in cells or lysates may run through a third protein. Binding can be weak; no strength is given. Where a sequence is shown, tags or fusion partners need not be part of it.

Chains of the proteins cited; added tags and fusions are not shown. Lines headed by an entry give the natural chain unless they say otherwise; changes in a name come on top.
UniProt A8MQG7: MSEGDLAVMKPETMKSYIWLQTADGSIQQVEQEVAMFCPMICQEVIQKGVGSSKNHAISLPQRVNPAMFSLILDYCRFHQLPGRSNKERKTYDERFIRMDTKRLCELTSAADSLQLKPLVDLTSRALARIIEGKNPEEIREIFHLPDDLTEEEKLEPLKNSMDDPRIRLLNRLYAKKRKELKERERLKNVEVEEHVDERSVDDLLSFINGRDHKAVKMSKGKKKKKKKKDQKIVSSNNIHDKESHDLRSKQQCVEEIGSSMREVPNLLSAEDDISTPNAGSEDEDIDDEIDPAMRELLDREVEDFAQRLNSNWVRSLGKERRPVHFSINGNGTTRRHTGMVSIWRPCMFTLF

Tests used:
Test in all cases: split reporter; FBX in pSCYCE (SCFP3A 174-328), ASK in pSCYNE (SCFP3A 1-173), CaMV 35S promoter; Agrobacterium GV3101 infiltrated into Nicotiana tabacum leaves, 28 C for 3 days; fluorescence microscopy
[1] = molecular target: T1, F-box (FBX) protein At3g03360, BiFC fusion (Arabidopsis thaliana) (UniProt Q84W80)
T1 sequence: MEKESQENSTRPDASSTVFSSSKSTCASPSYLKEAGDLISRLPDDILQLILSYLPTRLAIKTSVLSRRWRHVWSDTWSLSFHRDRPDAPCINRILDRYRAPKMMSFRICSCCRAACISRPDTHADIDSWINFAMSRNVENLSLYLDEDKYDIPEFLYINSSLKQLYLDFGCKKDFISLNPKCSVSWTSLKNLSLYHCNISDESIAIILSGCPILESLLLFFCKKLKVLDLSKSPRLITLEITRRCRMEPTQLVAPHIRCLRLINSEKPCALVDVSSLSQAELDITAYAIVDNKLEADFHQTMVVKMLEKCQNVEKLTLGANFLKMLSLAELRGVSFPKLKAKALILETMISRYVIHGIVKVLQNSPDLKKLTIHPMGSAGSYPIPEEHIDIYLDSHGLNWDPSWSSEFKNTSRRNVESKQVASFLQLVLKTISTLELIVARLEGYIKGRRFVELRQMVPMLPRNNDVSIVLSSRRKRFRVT

[2] = molecular target: T2, F-box (FBX) protein At5g21040, BiFC fusion (Arabidopsis thaliana) (UniProt Q94AD8)
T2 sequence: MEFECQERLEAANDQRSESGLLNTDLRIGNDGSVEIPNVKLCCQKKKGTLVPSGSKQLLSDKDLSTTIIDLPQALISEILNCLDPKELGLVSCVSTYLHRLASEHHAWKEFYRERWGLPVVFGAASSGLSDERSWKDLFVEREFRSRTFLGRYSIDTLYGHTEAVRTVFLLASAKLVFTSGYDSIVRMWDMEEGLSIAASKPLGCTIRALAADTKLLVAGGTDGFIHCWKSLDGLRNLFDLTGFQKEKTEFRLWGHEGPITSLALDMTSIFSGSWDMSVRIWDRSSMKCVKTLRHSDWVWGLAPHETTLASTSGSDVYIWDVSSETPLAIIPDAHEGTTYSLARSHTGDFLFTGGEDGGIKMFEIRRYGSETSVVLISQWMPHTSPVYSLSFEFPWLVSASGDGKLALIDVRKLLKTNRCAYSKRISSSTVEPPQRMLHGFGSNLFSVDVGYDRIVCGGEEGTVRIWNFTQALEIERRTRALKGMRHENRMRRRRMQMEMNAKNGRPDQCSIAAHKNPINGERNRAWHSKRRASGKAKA

[3] = molecular target: T3, F-box (FBX) protein At3g04660, BiFC fusion (Arabidopsis thaliana) (UniProt Q9SR08)
T3 sequence: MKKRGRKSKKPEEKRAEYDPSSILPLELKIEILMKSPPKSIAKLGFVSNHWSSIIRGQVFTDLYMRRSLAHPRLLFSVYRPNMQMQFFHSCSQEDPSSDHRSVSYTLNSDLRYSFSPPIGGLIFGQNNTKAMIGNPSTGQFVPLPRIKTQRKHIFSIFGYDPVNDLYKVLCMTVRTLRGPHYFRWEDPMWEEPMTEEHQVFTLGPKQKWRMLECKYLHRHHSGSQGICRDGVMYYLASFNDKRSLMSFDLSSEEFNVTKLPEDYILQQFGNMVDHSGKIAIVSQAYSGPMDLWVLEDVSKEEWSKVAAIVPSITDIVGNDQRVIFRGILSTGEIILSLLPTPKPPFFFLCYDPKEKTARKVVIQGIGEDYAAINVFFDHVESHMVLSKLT

[4] = molecular target: T4, F-box (FBX) protein At1g30790, BiFC fusion (Arabidopsis thaliana) (UniProt Q9SY20)
T4 sequence: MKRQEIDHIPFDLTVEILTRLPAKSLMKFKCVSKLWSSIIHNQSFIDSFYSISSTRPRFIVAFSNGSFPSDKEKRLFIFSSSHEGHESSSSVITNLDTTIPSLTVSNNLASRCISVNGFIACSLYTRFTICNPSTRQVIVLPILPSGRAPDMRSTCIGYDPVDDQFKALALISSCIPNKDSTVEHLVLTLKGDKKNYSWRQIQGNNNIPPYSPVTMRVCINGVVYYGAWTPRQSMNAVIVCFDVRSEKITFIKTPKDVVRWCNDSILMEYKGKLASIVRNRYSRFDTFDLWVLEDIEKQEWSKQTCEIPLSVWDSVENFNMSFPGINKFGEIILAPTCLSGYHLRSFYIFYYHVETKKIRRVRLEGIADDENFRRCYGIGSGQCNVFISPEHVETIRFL

binding [1]	binding [2]	binding [3]	binding [4]	Substance
binds	binds	–	–	Arabidopsis SKP1-LIKE 7 (ASK7), BiFC fusion
binds	binds	binds	binds	Arabidopsis SKP1-LIKE 20B (ASK20B), BiFC fusion (from UniProt A8MQG7)
binds	binds	binds	binds	Arabidopsis SKP1-LIKE 5 (ASK5), BiFC fusion
binds	–	binds	binds	Arabidopsis SKP1-LIKE 8 (ASK8), BiFC fusion
binds	binds	binds	binds	Arabidopsis SKP1-LIKE 20A (ASK20A), BiFC fusion (from UniProt A8MQG7)
